# From the supplement of paper PMC10503962
# The list shows a part of the results. Many values rest on one well or one pass, so single values are uncertain.
# Test system: Trichuris muris adult worms
# Assay: median motility score (Paragon pixel variance) of adult worms (arbitrary units); higher = more motile worms
# Details: 24 h
Compound,median motility score (20 µM),median motility score (50 µM),median motility score (100 µM)
CN(C)CC(c1ccc(O)cc1)C1(O)CCCCC1 (stereo not drawn) [desvenlafaxine],2780,2890,4870
O=C(O)COCCN1CCN(C(c2ccccc2)c2ccc(Cl)cc2)CC1 (stereo not drawn) [cetirizine],2400,3390,4520
CC(=O)N1CCN(c2ccc(OCC3COC(Cn4ccnc4)(c4ccc(Cl)cc4Cl)O3)cc2)CC1 (stereo not drawn) [ketoconazole],2850,4120,4210
NS(=O)(=O)c1cc(C(=O)O)c(NCc2ccco2)cc1Cl [furosemide],2320,2130,2450
Cc1ccccc1N1C(=O)c2cc(S(N)(=O)=O)c(Cl)cc2NC1C (stereo not drawn) [metolazone],3380,1310,3650
CN(C)CCC(c1ccc(Cl)cc1)c1ccccn1 (stereo not drawn) [chlorpheniramine],2870,2230,4260
CCCCc1ncc(/C=C(\Cc2cccs2)C(=O)O)n1Cc1ccc(C(=O)O)cc1 [eprosartan],311,3460,2830
Cc1ccc(O)c([C@H](CCN(C(C)C)C(C)C)c2ccccc2)c1 [tolterodine],1830,2850,1870
CN1CCCC(n2nc(Cc3ccc(Cl)cc3)c3ccccc3c2=O)CC1.Cl (stereo not drawn) [azelastine hydrochloride],2960,2690,0
C(=C1NCCN1)c1cccc2ccccc12.Cl [naphazoline hydrochloride],2810,3120,3480
CCCC(=O)Nc1ccc(OCC(O)CNC(C)C)c(C(C)=O)c1 (stereo not drawn) [acebutolol],2490,2740,2030
